Results are given in words; binding and its absence hold for the method and conditions named. In cells and extracts the contact can be indirect. Some entries that bind do so weakly or less than the wild type.
Tests used:
[1] = molecular target: UFM1 specific ligase 1 (UFL1) (human (endogenous in U2OS and NBST cells)) (UniProt O94874); assay: co-IP; NBST cells transfected with Flag-NBS1, with or without 2 Gy IR, 30 min; IP with UFL1 antibody with Benzonase; blots
[2] = molecular target: UFM1 specific ligase 1 (UFL1) (human (endogenous in U2OS and NBST cells)) (UniProt O94874); assay: co-IP; U2OS cells (UFL1 Tet-on shRNA, with or without Dox), with or without 2 Gy IR, 30 min; NETN lysate; IP with UFL1 antibody + Benzonase; blots
[3] = molecular target: T1, UFL1 phospho peptide (DDSDDEpSQSSHTG); assay: pull-down; pS462 peptide on beads, NBS1 pulled down from cell; only the target purified
T1 sequence (peptide, phosphoserine at S462 (7th residue of the peptide)): DDSDDESQSSHTG

Protein sequences, listed by entry. Tags and fused reporters are not part of them.
UniProt O94874: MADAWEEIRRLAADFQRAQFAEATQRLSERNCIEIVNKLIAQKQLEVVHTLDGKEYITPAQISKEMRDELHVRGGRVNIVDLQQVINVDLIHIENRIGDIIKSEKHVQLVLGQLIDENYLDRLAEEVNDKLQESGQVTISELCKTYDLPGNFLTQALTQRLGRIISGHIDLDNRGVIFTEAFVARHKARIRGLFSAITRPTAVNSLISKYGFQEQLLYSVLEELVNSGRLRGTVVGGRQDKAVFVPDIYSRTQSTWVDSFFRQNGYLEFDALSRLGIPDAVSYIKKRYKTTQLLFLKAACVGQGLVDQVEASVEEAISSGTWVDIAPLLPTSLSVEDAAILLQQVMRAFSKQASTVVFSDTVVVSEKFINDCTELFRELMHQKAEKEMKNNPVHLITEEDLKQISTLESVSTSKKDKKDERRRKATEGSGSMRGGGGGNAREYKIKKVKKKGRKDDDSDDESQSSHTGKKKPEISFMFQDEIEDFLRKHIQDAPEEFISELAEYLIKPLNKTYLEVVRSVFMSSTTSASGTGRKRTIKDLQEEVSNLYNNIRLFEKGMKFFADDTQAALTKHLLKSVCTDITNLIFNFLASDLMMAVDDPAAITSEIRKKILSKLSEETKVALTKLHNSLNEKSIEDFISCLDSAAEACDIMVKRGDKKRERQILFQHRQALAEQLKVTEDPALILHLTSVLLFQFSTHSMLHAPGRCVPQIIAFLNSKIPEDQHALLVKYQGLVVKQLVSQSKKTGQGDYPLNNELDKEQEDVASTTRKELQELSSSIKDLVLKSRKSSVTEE
UniProt O60934: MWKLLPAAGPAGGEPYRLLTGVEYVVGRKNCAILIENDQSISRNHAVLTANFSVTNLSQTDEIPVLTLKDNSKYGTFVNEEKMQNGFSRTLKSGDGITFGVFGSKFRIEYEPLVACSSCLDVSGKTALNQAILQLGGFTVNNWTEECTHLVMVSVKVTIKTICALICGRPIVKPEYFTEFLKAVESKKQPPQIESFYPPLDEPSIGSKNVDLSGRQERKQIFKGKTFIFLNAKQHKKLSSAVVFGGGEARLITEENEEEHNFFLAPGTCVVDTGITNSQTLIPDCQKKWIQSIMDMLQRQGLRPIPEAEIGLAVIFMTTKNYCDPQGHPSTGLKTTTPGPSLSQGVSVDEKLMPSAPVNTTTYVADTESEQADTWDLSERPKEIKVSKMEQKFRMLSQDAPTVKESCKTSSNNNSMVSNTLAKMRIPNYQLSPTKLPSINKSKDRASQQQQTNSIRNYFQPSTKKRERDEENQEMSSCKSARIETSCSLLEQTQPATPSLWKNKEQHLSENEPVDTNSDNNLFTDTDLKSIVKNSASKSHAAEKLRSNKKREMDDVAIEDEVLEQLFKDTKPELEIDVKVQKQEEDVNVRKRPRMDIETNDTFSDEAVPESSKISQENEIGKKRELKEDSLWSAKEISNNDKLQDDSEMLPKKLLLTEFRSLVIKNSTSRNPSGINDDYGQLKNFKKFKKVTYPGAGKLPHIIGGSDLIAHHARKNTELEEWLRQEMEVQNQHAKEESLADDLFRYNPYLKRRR

Substance	binding [1]	binding [2]	binding [3]
Flag-NBS1 (from UniProt O60934 1-754)	binds	–	–
NBS1 (from UniProt O60934 1-754)	–	binds	binds

— PMC6423285
